Results on two substances are retold here after article PMC10653861, “Three small partner proteins facilitate the type VII-dependent secretion of an antibacterial nuclease” (mBio, 2023).

Protein sequences, listed by entry. Tags and fused reporters are not part of them. Lines headed by an entry give the natural chain unless they say otherwise; changes in a name come on top. Residues count along the entry.
UniProt Q2G179, residues 1-477: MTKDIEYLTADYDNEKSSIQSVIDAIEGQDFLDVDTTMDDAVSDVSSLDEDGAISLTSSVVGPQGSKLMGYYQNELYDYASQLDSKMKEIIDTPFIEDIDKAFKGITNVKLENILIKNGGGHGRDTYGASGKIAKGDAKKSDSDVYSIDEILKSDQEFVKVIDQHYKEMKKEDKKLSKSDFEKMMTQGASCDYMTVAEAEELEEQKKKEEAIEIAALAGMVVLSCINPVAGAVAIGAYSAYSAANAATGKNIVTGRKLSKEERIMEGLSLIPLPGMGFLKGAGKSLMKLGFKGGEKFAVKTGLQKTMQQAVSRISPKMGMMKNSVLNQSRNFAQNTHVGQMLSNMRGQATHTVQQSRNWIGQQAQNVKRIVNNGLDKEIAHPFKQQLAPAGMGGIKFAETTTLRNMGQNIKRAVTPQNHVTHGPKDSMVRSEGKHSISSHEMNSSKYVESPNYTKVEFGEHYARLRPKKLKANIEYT
UniProt Q2G183: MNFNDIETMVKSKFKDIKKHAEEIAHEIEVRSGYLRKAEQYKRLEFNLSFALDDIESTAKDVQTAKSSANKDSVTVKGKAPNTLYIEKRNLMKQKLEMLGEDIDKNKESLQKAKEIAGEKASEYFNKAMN
UniProt Q2G180: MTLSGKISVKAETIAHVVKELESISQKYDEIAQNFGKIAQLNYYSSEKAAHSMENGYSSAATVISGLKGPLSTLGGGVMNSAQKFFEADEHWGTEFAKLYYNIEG

These are yes or no findings as the source states them, for the method shown. In cells and extracts the contact can be indirect. Binding can be weak; no strength is given.

This experiment concerns the target EsaD_(1-477)-his (Staphylococcus aureus) (UniProt Q2G179). Briefly: pull-down + SEC.

Take EsxC (from UniProt Q2G183): the binding result was “binds”.
With EsxD (from UniProt Q2G180) the entry was “binds”.
